# Measurements published in article PMC12431657, “Discovery and mechanistic insights of dibenzoylmethane as a broad spectrum inhibitor of coronavirus” (PLOS Pathogens, 2025).
# Structures can show the parent of a compound that is named as a salt. Where two headings read alike, the source gives them in different places. Hit rate of the full screen: of about 3,300 compounds, about 95 (3%) showed an effect of 50% or more. The list shows a part of the results. Square brackets hold non-standard residues; d marks the D form. Peptide text beside a SMILES is read from it. * marks the point of attachment. Sta = CC(C)C[C@H](N)[C@@H](O)CC(=O)O; Isovaleryl = CC(C)CC(=O)*
# Tested on: HCoV-229E
# Set-up: species or system Huh-7; HTS, protection from HCoV-229E induced cell death, luminescent cell viability (CellCounting-Lite 2.0), inhibition rate
# Settings: 24 h post infection, 1 h compound pre-incubation, 10 µM, inhibitor
SMILES,229E Inhibition rate [%],"229E Inhibition rate (229E Inhibition rate, 24 h) [%]"
CC(C)[C@H](N)C(=O)NCCC(=O)O [H-Val-Ala-OH],25.7,
Cc1c(C)c2c(c(C)c1O)CC[C@@](C)(CCC[C@H](C)CCC[C@H](C)CCCC(C)C)O2 (racemic) [DL-alpha-Tocopherol],11.1,
COc1ccc2ccc(=O)oc2c1C[C@@H]1OC1(C)C [Meranzin],41.1,
CC[C@H](C)C(=O)O[C@H]1C[C@H](O)C=C2C=C[C@H](C)[C@H](CC[C@@H](O)C[C@@H](O)CC(=O)O)[C@H]21 [Pravastatin (sodium)],14.3,
CNc1ccccc1C(=O)OC [Methyl N-methylanthranilate],29.4,
COc1c2ccoc2c(O)c2oc(=O)ccc12 [8-Hydroxybergapten],7.9,
OCc1ccc(O)cc1 [4-Hydroxybenzyl alcohol],26.1,
COc1cc2c(c(OC)c1OC)-c1c(cc3c(c1O)OCO3)C[C@H](C)[C@@H](C)C2 [Gomisin M2],19.3,
OCc1cccc(O)c1 [KSD 2405],12.6,
CC(C)[C@H](NC(=O)[C@H](CC(=O)O)NC(=O)[C@H](CCCCN)NC(=O)[C@@H](N)CCCN=C(N)N)C(=O)N[C@@H](Cc1ccc(O)cc1)C(=O)O [Thymopentin (acetate)] (H-RKDVY-OH),,11.4
CC(=O)N[C@H]1[C@H]([C@H](O)[C@H](O)CO)OC(O)(C(=O)O)C[C@@H]1O (stereo partly drawn) [N-Acetylneuraminic acid],13.4,
Nc1ncnc2c1ncn2[C@@H]1O[C@H](CO)C[C@H]1O [Cordycepin],15.3,
CC[C@H](C)[C@@H]1NC(=O)[C@@H]2CCCN2C(=O)[C@@H]2CCCN2C(=O)[C@@H]2CCCN2C(=O)[C@H](CC(C)C)NC(=O)CNC(=O)CNC(=O)[C@H](Cc2ccccc2)NC1=O [Heterophyllin B] (cyclo(FGGLPPPI)),12.9,
CC(C)CC(=O)N[C@H](C(=O)N[C@H](C(=O)N[C@@H](CC(C)C)[C@@H](O)CC(=O)N[C@@H](C)C(=O)N[C@@H](CC(C)C)[C@@H](O)CC(=O)O)C(C)C)C(C)C [Pepstatin] (Isovaleryl-VV[Sta]A[Sta]-OH),,8.2
"CCCCCCCCCCCCCCCC(=O)OC[C@H](CO)OC(=O)CCCCCCCCCCCCCCC [1,2-Dipalmitoyl-sn-glycerol]",6,
N[C@@H](CCC(=O)NCC(=O)O)C(=O)O [γ-Glu-Gly],27.8,
CCCCCCCC/C=C\CCCCCCCC(=O)O [Sodium oleate],,10
CC[C@@]1(O)C(=O)OCc2c1cc1n(c2=O)Cc2cc3c(CN(C)C)c(O)ccc3nc2-1 [Topotecan (Hydrochloride)],8.7,
Oc1cc(O)cc(/C=C/c2ccc(O)c(O)c2)c1 [Piceatannol],34.2,
O=C(O)/C=C(\CC(=O)O)C(=O)O [trans-Aconitic acid],15.5,

SMILES,229E Inhibition rate [%],"229E Inhibition rate (229E Inhibition rate, 24 h) [%]"
COc1cc(/C=C/CO)ccc1O[C@@H]1O[C@H](CO)[C@@H](O)[C@H](O)[C@H]1O [Coniferin],8.4,
C=CC(C)(O)CCC=C(C)C (stereo not drawn) [Linalool],20.5,
COc1cc2c(cc1OC)-c1cc3ccc(OC)c(OC)c3c[n+]1CC2 [Palmatine (chloride)],,29
NC[C@H]1O[C@H](O[C@H]2[C@H](O)[C@@H](O[C@H]3O[C@H](CO)[C@@H](O)[C@H](N)[C@H]3O)[C@H](N)C[C@@H]2N)[C@H](N)[C@@H](O)[C@@H]1O [Bekanamycin],9.2,
Cc1ccc(C(C)C)c(O)c1 [Thymol],13.1,
CC/C=C\C/C=C\C/C=C\CCCCCCCC(=O)O [α-Linolenic acid],15,
C[C@@H]1O[C@@H](O[C@H]2C(=O)c3c(O)cc(O)cc3O[C@@H]2c2ccc(O)c(O)c2)[C@H](O)[C@H](O)[C@H]1O [Astilbin],15.2,
O=c1cccc2n1C[C@@H]1CNC[C@H]2C1 [Cytisinicline],0,
C/C=C/SC[C@H](N)C(=O)O [S-1-Propenyl-L-cysteine],13,
COc1ccc2c(c1OC)CN1CCc3cc4c(cc3C1=C2)OCO4 [Dihydroberberine],30,
O=c1oc2ccccc2cc1O [3-Hydroxycoumarin],12.9,
Nc1[nH]c(=O)nc2c1ncn2[C@@H]1O[C@H](CO)[C@@H](O)[C@H]1O [Crotonoside],10.9,
C=CCc1ccc(OC)cc1 [Estragole],21.1,
"CC(=O)c1ccc(C)cc1C [2',4'-Dimethylacetophenone]",31.8,
O=c1c(O[C@@H]2O[C@H](CO[C@@H]3O[C@H](CO)[C@@H](O)[C@H](O)[C@H]3O)[C@@H](O)[C@H](O)[C@H]2O)c(-c2ccc(O)c(O)c2)oc2cc(O)cc(O)c12 [Quercetin 3-gentiobioside],6.9,
O=c1ccn([C@@H]2O[C@H](COP(=O)(O)O)[C@@H](O)[C@H]2O)c(=O)[nH]1 [Uridine 5'-monophosphate],,18.2
COc1ccc(CCc2cc(OC)c(OC)c(OC)c2)cc1O [Erianin],26,
CN1CCc2cc3c(cc2C(=O)Cc2cc4c(cc2C1)OCO4)OCO3 [Protopine],13.8,
C[C@@H]1O[C@@H](O[C@H]2[C@H](Oc3cc(O)c4c(c3)O[C@H](c3ccc(O)cc3)CC4=O)O[C@H](CO)[C@@H](O)[C@@H]2O)[C@H](O)[C@H](O)[C@H]1O [Naringin],10.8,
CCCCCCCCCCCCCCCCCCCC(=O)O [Arachidic acid],14.3,

# A few values from the entries so far:
# Under 229E Inhibition rate [%], COc1cc(/C=C/CO)ccc1O[C@@H]1O[C@H](CO)[C@@H](O)[C@H](O)[C@H]1O [Coniferin] is listed with 8.4
# Under 229E Inhibition rate [%], COc1ccc(CCc2cc(OC)c(OC)c(OC)c2)cc1O [Erianin] is listed with 26

# The list continues.

SMILES,229E Inhibition rate [%],"229E Inhibition rate (229E Inhibition rate, 24 h) [%]"
COC(=O)[C@@]12OC[C@]34[C@H]([C@@H](O)[C@@H]1O)[C@@]1(C)CC(=O)C(O)=C(C)[C@@H]1C[C@H]3OC(=O)[C@H](OC(C)=O)[C@@H]24 [Bruceine B],14.7,
CC(C)C1=CC(=O)[C@@](C)([C@H]2[C@H](O)C[C@@]3(C)[C@@H]4CC=C5[C@@H](CC[C@@H](O[C@@H]6O[C@H](CO)[C@@H](O)[C@H](O)[C@H]6O[C@@H]6O[C@@H](C)[C@H](O)[C@@H](O)[C@H]6O)C5(C)C)[C@]4(C)C(=O)C[C@]23C)O1 [Picfeltarraenin IB],14,
"CC1=C[C@]23C(=O)[C@H](C=C4COC(C)(C)OC4C24OC(C)(C)OC14)[C@@H]1[C@H](CC3C)C1(C)C (stereo partly drawn) [Ingenol-3,4,5,20-diacetonide]",11.6,
COc1ccc(-c2cc(=O)c3c(O)cc(O)cc3o2)cc1-c1c(O)cc(O)c2c(=O)cc(-c3ccc(O)cc3)oc12 [Bilobetin],22.4,
C[C@H](CCC(=O)NCC(=O)O)[C@H]1CC[C@H]2[C@@H]3[C@H](O)C[C@@H]4C[C@H](O)CC[C@]4(C)[C@H]3C[C@H](O)[C@]12C [Glycocholic acid (hydrate)],,4.1
CN=C(N)N [1-Methylguanidine hydrochloride],10.7,
C=C(CCC=C(C)C)[C@H]1CC[C@]2(C)[C@@H]1[C@H](O)C[C@@H]1[C@@]3(C)CC[C@H](O)C(C)(C)[C@@H]3[C@@H](O[C@@H]3O[C@H](CO)[C@@H](O)[C@H](O)[C@H]3O[C@@H]3O[C@@H](C)[C@H](O)[C@@H](O)[C@H]3O)C[C@]12C [Ginsenoside Rg6],10.2,
C=C[C@H]1[C@H](O[C@@H]2O[C@H](CO)[C@@H](O)[C@H](O)[C@H]2O)OC=C2C(=O)OCC[C@]21O [Swertiamarin],14.3,
CC(C)CCC[C@@H](C)[C@H]1CC[C@@]2(C)C3=C(CC[C@]12C)[C@@]1(C)CC[C@H](O)C(C)(C)[C@@H]1CC3 [Dihydrolanosterol],15.4,
C/C=C/c1cc(OC)c2c(c1)[C@@H](C)[C@H](c1ccc3c(c1)OCO3)O2 [Licarin B],8.7,
C[C@H](CCC(=O)O)[C@H]1CC[C@H]2[C@@H]3C[C@H](O)[C@@H]4C[C@H](O)CC[C@]4(C)[C@H]3CC[C@]12C [Hyodeoxycholic acid],36.7,
O=C1N[C@@H](Cc2ccc(O)cc2)C(=O)N2CCC[C@@H]12 [Maculosin],13.1,
O=c1cc(-c2ccc(O)cc2)oc2cc(O)c([C@@H]3O[C@H](CO)[C@@H](O)[C@H](O)[C@H]3O[C@@H]3O[C@H](CO)[C@@H](O)[C@H](O)[C@H]3O)c(O)c12 [Meloside A],56.2,
O=C(/C=C/c1ccc(O)c(O)c1)O[C@H]1[C@H](O)C[C@](O)(C(=O)O)C[C@H]1O [Cryptochlorogenic acid],7.4,
"O=C(CO)[C@@H](O)[C@H](O)[C@@H](O)CO [(3S,4R,5S)-1,3,4,5,6-Pentahydroxyhexan-2-one]",8.7,
CO[C@@H]1[C@H](O)CC[C@]2(CO2)[C@H]1[C@@]1(C)O[C@@H]1CC=C(C)C [Fumagillol],12.4,
O=C(O)/C=C/C=C/c1ccccc1 [Cinnamylideneacetic acid],11.1,
C=C1CCC[C@]2(C)C[C@]3(O)OC(=O)C(C)=C3C[C@@H]12 [Atractylenolide III],24,
O=c1c(O[C@@H]2O[C@@H](CO)[C@H](O)[C@H]2O)c(-c2ccc(O)c(O)c2)oc2cc(O)cc(O)c12 [Avicularin],13.3,
C=C1[C@H]2C[C@H]2[C@]2(C)Cc3occ(C)c3[C@H](O)[C@@H]12 [Lindenenol],28.5,
